## Percent effect of library compounds

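Phenotypic screen: M. tuberculosis growth, glucose 7H9 medium, 3 days; the read-out is not stated. Tested at 500 µM. The record gives no direction; compounds that gave an IC50 in retests scored well above the rest, so higher reads as more growth inhibition. About 18,000 compounds were tested under these conditions; 7.9% (about 1,400) showed 50% or more at least once.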

Values are the deposited “Percent Effect”, in %.
The record does not define 0% and 100%; most values in the screen are far below 50% and negative numbers occur (in some assays of this library far below -100).
Compounds were drawn at random from those tested, without regard to their results.

CSc1ccc(NC(=O)CNC(=O)OC(C)(C)C)cn1 gave 43.55%. CC(=O)N(C)CC(=O)N1CCSCC1 read -4.374%. Result for CN1CCN(C(=O)C2(c3ccccc3F)CC2)CC1=O was 11.83%. Result for Cc1cc(C(=O)NCCNC2CC2)ccc1F was 3.631%.

For CC(C)OCCN(CC(N)=O)C(C)C the result was 9.129%. CC(C)(C)OC(=O)c1cc[nH]n1 gave 11.3%. Cc1nccc(O)c1OCC(=O)Nc1ccncc1 read -13.24%. With CCn1cnnc1CN(C)Cc1cc(C(C)=O)cn1C the screen gave -4.547%.

Result for CCN(CC)C(=O)CCC(=O)NCc1c[nH]nc1C was -2.302%. CC(C)(C(=O)NCc1nnc[nH]1)c1cccc(Cl)c1 gave 20.65%. For CS(=O)(=O)c1cccc(C(=O)NCCCN)c1 the result was -3.881%. CC(=O)N1CCCCCC1C1CCNCC1 (stereo not given) read 10.65%.

With O=C(CNC(=O)c1ccc2ccccc2c1)NC1CC1 the screen gave 2.293%. With Cc1ccc(NC(=O)CCCNC(=O)C2CC2)cc1 the screen gave -8.215%. Nc1ccc(C2CCCN2)nn1 (stereo not given) read 8.13%. COC[C@@H]1CCCN1Cc1ccc(N(C)C)nc1 gave 3.651%.

Result for Cn1nccc1CCC(=O)NCC1CCCNC1 (stereo not given) was -7.458%. Result for COCC1CN(c2ccccn2)CCO1 (stereo not given) was 19.64%. For CCOc1ccc(Cl)cc1CNCCNCCO the result was 30.99%. For CC(=O)c1ccc(CNC(=O)c2cc[nH]n2)nc1C the result was 3.56%.

With Cc1n[nH]cc1CNCc1ccc(-n2ccnc2)nc1 the screen gave -0.8073%. Result for COc1ccc(C2NC(=O)c3cccnc3N2)cc1F (stereo not given) was 4.59%. With NC(=O)C1CCCN(S(=O)(=O)Cc2ccc(Cl)cc2)C1 (stereo not given) the screen gave 11.79%. With Cc1cc(CN)c(C)n1C the screen gave 37.3%.

COc1cc(C(C)NCC(C)(C)C(N)=O)ccc1F (stereo not given) gave -6.673%. COCC(C)N(C)C(=O)c1cc(-c2ccc(C)s2)[nH]n1 (stereo not given) gave 26.18%. Result for CC(C(=O)Nc1cc(Cl)c(Cl)cn1)S(C)(=O)=O (stereo not given) was -3.54%. Result for c1ccc(CNC2CCCNCC2)cc1 (stereo not given) was -10.03%.

Result for CCC(C)Oc1cccc(NC(=O)NCCO)c1 (stereo not given) was 37.84%. For COCCNC(=O)NCCc1ccc(C)c(OC)c1 the result was 16.78%. CC(CC#N)NS(=O)(=O)Cc1ccc(F)cc1 (stereo not given) read 4.837%. With COc1cc(OC)cc(N2CCC(N)CC2)c1 the screen gave 37.61%.

Result for COC(=O)c1cc(N2C(=O)C=CC2=O)ccc1Cl was 0.1205%. With COCc1cc(CNCC2(O)CNCCOC2)n[nH]1 (stereo not given) the screen gave -6.35%. Result for C1CN(Cc2nc(C3CC3)no2)CCS1 was 42.81%. COc1cnc(N2C[C@H](C(C)C)[C@@H](N)C2)nc1 gave 17.89%.

Nc1nc(C2CC(N)C2)cc(N2CCC(F)CC2)n1 (stereo not given) read 4.693%. CCOCn1cnc2sccc2c1=O read 2.813%. For CS(=O)(=O)CCn1ccnc1-c1cccc(Br)c1 the result was 1.294%. CC1(C)C[C@@H]1C(=O)Nc1cnccc1N1CCOCC1 gave 5.957%.

With Cc1c(CN2CC3(CCNCC3)OC2=O)cnn1C the screen gave -4.774%. For Cc1cc(Cn2cc(S(=O)(=O)N(C)C)ccc2=O)no1 the result was 12.74%. Result for CC1CCCN(CC(=O)NC2CC2)C1 (stereo not given) was 9.305%. With NCC(NS(=O)(=O)CCc1cccs1)C1CC1 (stereo not given) the screen gave 57.5%.

CCC(NC(=O)Cn1nc(C)cc1N)[C@H]1C[C@H](O)C1 (stereo not given in full) gave 15.8%. For CC1CCCN(CCNS(=O)(=O)CCCS(C)(=O)=O)C1 (stereo not given) the result was 15.45%. Result for CC1CS(=O)(=O)CCN1Cc1ccc(F)c(C#N)c1 (stereo not given) was -10.51%. Result for CNCc1csc(C)n1 was 16.66%.

Cc1ccc(N2CCCC(N)C2)cc1 (stereo not given) gave 41.66%. For CSCCN(C)Cc1cn(-c2ccccc2)nn1 the result was 65.39%. CCN1CCN(CC(C)CNc2ncccc2F)CC1 (stereo not given) gave 1.301%. Result for CCCOc1cccc(C(=O)N(C)CC(N)=O)c1 was 21.32%.

Some entries from above, unchanged:

{"smiles": "NC(=O)C1CCCN(S(=O)(=O)Cc2ccc(Cl)cc2)C1", "stereo": "stereo not given", "effect": 11.79}
{"smiles": "CC1CS(=O)(=O)CCN1Cc1ccc(F)c(C#N)c1", "stereo": "stereo not given", "effect": -10.51}
{"smiles": "NCC(NS(=O)(=O)CCc1cccs1)C1CC1", "stereo": "stereo not given", "effect": 57.5}
{"smiles": "CCC(NC(=O)Cn1nc(C)cc1N)[C@H]1C[C@H](O)C1", "stereo": "stereo not given in full", "effect": 15.8}

Data taken from ChEMBL document CHEMBL3988442, “University of Dundee, Small-Polar-MMV Screening Library” (2021).